Data from patent US20080038381A1, “APPLICATION OF GREEN TEA EXTRACT AND ITS MAJOR COMPONENTS IN KELOID SCAR THERAPY” (UNIVERSITY OF SOUTHERN CALIFORNIA, priority 2006, published 2008).
For at least one compound, name, drawing or mass did not settle the structure.

Test system: type I collagen expression in keloid fibroblasts co-cultured with HMC-1 cells
Experiment: HMC-1-stimulated type I collagen expression in co-cultured keloid fibroblasts (Western blot)
Format: cell-based, human
Conditions: pretreated 1 h, then co-culture with same density of HMC-1 cells (1:1) for 24 h
Experimental: Keloid fibroblasts (1×10^5/well) were seeded on the bottom of a 6-well plate and maintained at normal culturing conditions for at least 24 h. Different densities of HMC-1 cells were seeded on top of the monolayer of fibroblasts and co-cultured for different time intervals based on experimental purposes. To observe the effects of GTE and EGCG or various specific kinase inhibitors on type I collagen expression in keloid fibroblasts co-cultured with HMC-1 cells, fibroblasts at about 80% confluence were pretreated with different concentrations of GTE, EGCG, or various kinase inhibitors for 1 h followed by co-culturing with the same cell density of HMC-1 cells (1:1) under normal culturing conditions for indicated time periods. Cell lysates were prepared for Western blot analysis.
To determine type I collagen, and phosphorylated ERK1/2 and Akt levels, cells were solubilized in lysis buffer (50 mM Tris-HCl, pH 7.5, 150 mM NaCl, 5 mM EDTA, 200 μM Na3VO4, 50 mM NaF, 0.5% Triton X-100) supplemented with 10 mM dithiothreitol (DTT), 200 FM phenylmethylsulfonyl fluoride (PMSF) and protease inhibitor cocktails (Sigma). Total protein concentrations of whole cell lysates were determined using BioRad BCA method (PIERCE, Rockford, Ill.). […]

Structure (SMILES) | HMC-1-stimulated type I collagen expression (protein production) in keloid fibroblasts
O=c1cc(N2CCOCC2)oc2c(-c3ccccc3)cccc12 [LY294002] | dramatically decreased
CO[C@H]1C[C@@H]2CC[C@@H](C)[C@@](O)(O2)C(=O)C(=O)N2CCCC[C@H]2C(=O)O[C@H]([C@H](C)C[C@@H]2CC[C@@H](O)[C@H](OC)C2)CC(=O)[C@H](C)/C=C(\C)[C@@H](O)[C@@H](OC)C(=O)[C@H](C)C[C@H](C)/C=C/C=C/C=C/1C [rapamycin] | dose dependent inhibition
